Out of some 320,000 compounds screened, about 620 (0.19%) were called active. Inconclusive means that the source gave no clear call. Such entries were picked first, then a sample of the others. Rule as the data show it: active = activation above about 80%; inconclusive = between about 30% and that limit; inactive = weaker than that.
Target: Transient receptor potential cation channel subfamily V member 1 (Homo sapiens) (UniProt Q8NER1)
Assay: HTS Assay for Compounds that Act as Agonists of the Vanilloid Receptor 1; also: 0% is about no effect
Conditions: TRPV1-expressing cells, Fluo-8 calcium influx, agonist mode; at 8.33 µM, hits give high values
How it was run: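 Cells expressing TRPV1 were dye-loaded with Fluo-8 and read kinetically: 10 s baseline, 3 min after compound (agonist portion), then 2 min after EC20 capsaicin (allosteric enhancer portion). Calcium-bound dye fluorescence at 480/520 nm.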

Sequences of proteins named here, by UniProt entry; tags and fusion partners are left off.
UniProt Q8NER1, whole entry, looked up: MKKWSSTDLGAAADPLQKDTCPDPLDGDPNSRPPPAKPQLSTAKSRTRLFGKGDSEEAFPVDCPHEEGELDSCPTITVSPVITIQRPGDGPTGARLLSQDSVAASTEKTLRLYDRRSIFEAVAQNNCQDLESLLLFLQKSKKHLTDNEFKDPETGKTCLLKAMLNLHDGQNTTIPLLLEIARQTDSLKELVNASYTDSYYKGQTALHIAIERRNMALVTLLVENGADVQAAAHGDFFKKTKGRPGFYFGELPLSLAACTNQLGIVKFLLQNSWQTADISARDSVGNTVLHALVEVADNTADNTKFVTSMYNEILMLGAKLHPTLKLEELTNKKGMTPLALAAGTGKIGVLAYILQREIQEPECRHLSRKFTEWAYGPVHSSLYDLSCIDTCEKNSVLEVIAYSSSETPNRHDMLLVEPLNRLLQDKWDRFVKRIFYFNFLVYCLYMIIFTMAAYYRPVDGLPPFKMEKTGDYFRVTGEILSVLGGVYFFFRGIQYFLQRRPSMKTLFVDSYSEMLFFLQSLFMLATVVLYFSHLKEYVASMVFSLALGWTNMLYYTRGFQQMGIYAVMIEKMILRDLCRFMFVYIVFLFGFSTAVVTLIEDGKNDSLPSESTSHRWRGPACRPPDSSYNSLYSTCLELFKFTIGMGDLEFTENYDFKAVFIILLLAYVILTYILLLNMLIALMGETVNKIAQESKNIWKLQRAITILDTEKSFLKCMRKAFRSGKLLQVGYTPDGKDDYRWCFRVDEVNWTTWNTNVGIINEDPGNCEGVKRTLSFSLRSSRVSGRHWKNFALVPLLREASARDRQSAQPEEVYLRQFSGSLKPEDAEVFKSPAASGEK

Structure (SMILES) | activation
COc1ccc(C(C#N)N2N=C(c3ccccc3)CC2c2ccccc2)cc1OC (stereo unspecified) | inconclusive: 38%
O=C(c1cc(-c2ccccc2)on1)N1CCCC1 | inconclusive: 31.1%
Cc1ccc(CN(C)CC(=O)Nc2ccc3c(c2)CCC3)cc1 | inconclusive: 30%
CCc1cc(=O)oc2c3c(cc(OCC(=O)Nc4cccnc4)c12)OC(C)(C)CC3 | inconclusive: 32.7%
CCOC(=O)CSc1nc2cc3c(cc2cc1CC)OCCO3 | inconclusive: 36.4%
O=C(Nc1ccc(Cl)cc1)c1ccc2snnc2c1 | active: 87.6%
COc1cc(/C=C/C(=O)OCC(=O)NCC2CCCCC2)ccc1O | inconclusive: 31.6%
COc1ccc(C(=O)CC(=O)C(=O)Nc2ccccc2C(F)(F)F)cc1 | inactive: 3.61%
Cc1ccccc1CSCC(=O)NC(=O)NCc1ccco1 | inactive: -5.71%
COc1ccc(CN2C(=O)CC(Cc3cc(C)cc(C)c3)C2=O)cc1OC (stereo unspecified) | inconclusive: 53%
COc1cccc(NC(=O)CCC(=O)Nc2cccc(OC)c2)c1 | inactive: 3.23%
Cc1cc(C(C)(C)C)cc(C)c1CCNC(=O)c1c(C)noc1C | inconclusive: 67.2%
Cc1cc(C)cc(C(=O)NCC(=O)N2CCN(C(c3ccccc3)c3ccccc3)CC2)c1 | inconclusive: 49.7%
CCC(C)Sc1cccc(-c2nc3ccc(C)cn3c2NC2CCCCC2)c1 (stereo unspecified) | inconclusive: 63.3%
COc1cccc(NC(=O)CCc2nc(-c3cccs3)no2)c1 | inconclusive: 43.8%
Cc1ccc(NC(=O)COC(=O)Cc2c[nH]c3ccccc23)cc1C | inconclusive: 35%
Cc1cc(C)nc(N2CCCC(C(=O)Nc3ccc(F)cc3)C2)n1 (stereo unspecified) | inconclusive: 67.1%
COc1ccccc1NC(=S)N(Cc1ccccc1)Cc1ccccn1 | inactive: 22.5%
COc1ccc(NC(=O)C2=Cc3ccccc3OC2)cc1 | inconclusive: 54.9%
COc1ccc(N2CCN(c3nccs3)CC2)cc1 | inconclusive: 54.1%
COc1ccc(CN(C)Cc2c(O)ccc3cc(Br)ccc23)cc1OC | inconclusive: 31.7%
N#Cc1cc2c(nc1SCc1nc3ccccc3[nH]1)CCC2 | inconclusive: 34.4%
Cn1ncc(Cl)c1C(=O)Nc1ccc2c(c1)CCC2 | inconclusive: 47%

Structure (SMILES) | activation
Cc1cc(C=O)c(C)n1-c1ccc(N2CCCCC2)c([N+](=O)[O-])c1 | inconclusive: 62.1%
Cc1noc(C)c1CC(=O)NC1CC(C)(C)Cc2c1cnn2-c1ccccc1 (stereo unspecified) | inconclusive: 54.9%
Cc1c(C(=O)Nc2cccc(F)c2)cnn1-c1ccccc1 | inconclusive: 60.4%
O=[N+]([O-])c1ccc(Nc2ccccc2)c2nonc12 | inactive: 3.32%
CC1=CCC2C(=O)N(c3cccc(C(=O)Nc4ccc(Cl)cc4)c3)C(=O)C2C1 (stereo unspecified) | inconclusive: 49.4%
CC1(C)Cc2c(cnn2-c2ccccc2)C(NC(=O)CCc2ccncc2)C1 (stereo unspecified) | inconclusive: 38.2%
O=C(CCCc1c[nH]c2ccccc12)NCC1COc2ccccc2O1 (stereo unspecified) | inconclusive: 59.1%
Cc1cc(=O)[nH]c(N=N/C(=N/Nc2ccccc2C)c2ccccc2)n1 | inactive: 4.33%
OC1CCN(C(=S)NCCc2ccccc2)CC1 | inconclusive: 62.5%
S=C(Nc1ccccc1)NC1CCN(Cc2ccccc2)CC1 | inconclusive: 30.3%
CNC(=O)c1ccc(-c2sc3nc(N4CCOCC4)c4c(c3c2N)CC(C)(C)OC4)o1 | inactive: 0.418%
Clc1cc(Br)ccc1OCCCNCc1ccccc1 | inactive: 9.64%
O=C(COC(=O)Cc1ccsc1)NC(c1ccccc1)c1ccccc1 | inconclusive: 47.8%
COC(=O)c1c(NC(=O)CN2CCN(C(=O)c3ccco3)CC2)c2cc(C)ccc2n1C | inactive: 1.08%
COc1cc(C(Nc2ccccn2)c2c(NC(=O)c3ccco3)sc(C)c2C)cc(OC)c1OC (stereo unspecified) | inconclusive: 36.4%
CC(C)(C)N(Cc1ccccc1)C(=O)COC(=O)CN1C(=O)NC2(CCCC2)C1=O | inconclusive: 54.2%
COc1cccc(C2=NOC(C(=O)N3CCc4ccccc4C3)C2)c1 (stereo unspecified) | inconclusive: 30.4%
O=C(CN1CCN(C/C=C/c2ccccc2)CC1)NCc1ccccc1 | inactive: 3.55%
O=C(N/N=C/c1ccccc1)c1[nH]c2ccc(Br)cc2c1-c1ccccc1 | inconclusive: 44%
Cc1ccc(CNC(=O)C2CCC(=O)N(Cc3ccc(Cl)cc3)C2)cc1F (stereo unspecified) | inconclusive: 33.1%
O=C(Nc1ccc2c(c1)OCCO2)c1ccc(Cl)c(S(=O)(=O)N2CCCCC2)c1 | inconclusive: 34.8%
CN(C)S(=O)(=O)Oc1ccsc1C(=O)Nc1ccc(Cl)c(Cl)c1 | inactive: 3.58%
COc1cccc(/C=C2/Oc3ccccc3N(CC(=O)NCC3CCCO3)C2=O)c1 (stereo unspecified) | inconclusive: 47%

Structure (SMILES) | activation
N#C/C(=C\c1ccccc1[N+](=O)[O-])C(=O)NCc1ccccc1 | inactive: 8.11%
Cn1nc(C(C)(C)C)c([N+](=O)[O-])c1C(=O)NC1CCCCC1 | inconclusive: 39.5%
NS(=O)(=O)c1ccc(NC(=O)COC(=O)/C(=C/c2cccs2)c2cccs2)cc1 | inconclusive: 51.8%
O=C(N/N=C/c1ccc2c(c1)OCO2)c1ccc(COCC(F)(F)C(F)F)cc1 | inconclusive: 51.5%
c1coc(CNc2ncnc3c2oc2ccccc23)c1 | inconclusive: 33.3%
Cc1cc2c(cc(C(=O)OC(C(=O)NC3CCCCC3)C(C)C)n2C)o1 (stereo unspecified) | inconclusive: 50.1%
Cc1ccc(NC(=O)c2sccc2SCc2cccc(C(F)(F)F)c2)cc1 | inconclusive: 33.8%
COc1cccc(C2=NOC(C(=O)Nc3ccc(C(C)=O)cc3)C2)c1 (stereo unspecified) | inconclusive: 40.2%
FC(F)(F)C(Oc1nc(Nc2ccc(Cl)cc2)nc(N2CCOCC2)n1)C(F)(F)F | inconclusive: 54%
CCOC(=O)C(=O)NCC(c1cccs1)S(=O)(=O)c1ccc(F)cc1 (stereo unspecified) | inactive: -1.56%
Cc1cnc(NC(=O)c2ccc3c(c2)OCCO3)s1 | inconclusive: 48.7%
Cc1ccc(NC(=O)C2CCCN(c3ncccn3)C2)cc1C (stereo unspecified) | inconclusive: 46.5%
O=C(CSCCO)Nc1ccc(C23CC4CC(CC(C4)C2)C3)cc1 | inconclusive: 74.7%
CCO[C@H]1OC(C(=O)N2CCN(Cc3ccc4c(c3)OCO4)CC2)=C[C@@H](c2ccccc2)[C@@H]1CCCO | inconclusive: 33.7%
O=C(N/C(=C\c1ccc(Br)cc1)c1nc2ccccc2[nH]1)c1ccco1 | inconclusive: 54.3%
CC(=O)CCc1oc2ccccc2c1-c1ccccc1 | inconclusive: 37%
CCOC(=O)C1CCCN(C(=O)c2ccc(C)c([N+](=O)[O-])c2)C1 (stereo unspecified) | inactive: 2.96%
Cc1oc(C(C)(C)C)cc1C(=O)Nc1ccc2c(c1)OCCO2 | inconclusive: 70.4%
O=c1cc(-c2cccc(F)c2)[nH]c2ccccc12 | inactive: 1.19%
COc1ccc(CCNC(=O)NC23CC4CC(CC(C4)C2)C3)cc1 | inconclusive: 38.4%
Cc1ccccc1/C=N/n1c(-c2ccccn2)n[nH]c1=S | inactive: 3.9%
Cc1ccc(C(=O)OCCOc2cccc(Cl)c2)cc1S(=O)(=O)N1CCOCC1 | inconclusive: 34.2%
CC(=O)c1c(C)[nH]c(C(=O)Nc2cccc3ccccc23)c1C | inactive: -1.17%

Copied from above, 4 compounds:
Structure (SMILES) | activation
O=C(N/N=C/c1ccc2c(c1)OCO2)c1ccc(COCC(F)(F)C(F)F)cc1 | inconclusive: 51.5%
c1coc(CNc2ncnc3c2oc2ccccc23)c1 | inconclusive: 33.3%
Cc1cc2c(cc(C(=O)OC(C(=O)NC3CCCCC3)C(C)C)n2C)o1 (stereo unspecified) | inconclusive: 50.1%
Cc1ccc(NC(=O)c2sccc2SCc2cccc(C(F)(F)F)c2)cc1 | inconclusive: 33.8%

Later entries:

Structure (SMILES) | activation
S=C(Nc1ccccc1)Nc1cccc(Br)c1 | inactive: 0.143%
CCCC1=Nc2cc(C(=O)NCCCOC(C)C)ccc2Sc2ccccc21 | inconclusive: 38.5%
COc1cc(NC(=O)c2cccc(Br)c2)nc(OC)n1 | inactive: 17%
O=C(Nc1ccc(Cl)cc1Cl)c1ccc2c(c1)OCCO2 | inconclusive: 40.2%
Cc1c(C)n(C(=O)CSc2ncn[nH]2)c2ccccc12 | inconclusive: 40.9%
O=C1CCN(CCc2ccccc2)CCN1[C@H](CSc1ccc(Br)cc1)c1ccccc1 | inactive: 9.73%
O=S(=O)(Nc1nc2ccccc2nc1NCc1ccco1)c1ccc(Cl)cc1 | inactive: -0.264%
O=C(NCC(c1ccco1)N1CCc2ccccc2C1)c1ccc(Br)cc1 (stereo unspecified) | inactive: 20.2%
Cc1nn(-c2ccccc2)c(C)c1/C=N/Nc1nc2ccccc2[nH]1 | inactive: -1.09%
O=C1c2cccc3c(N4CCCCC4)ccc(c23)C(=O)N1c1ccccc1O | inconclusive: 46.2%
CCOC(=O)C1=C(c2ccccc2)N=c2s/c(=C\c3cccc(O)c3)c(=O)n2C1c1cccs1 (stereo unspecified) | inconclusive: 61.2%
Cc1nn(-c2ccccc2)c(Cl)c1/C=N/NC(=O)c1ccncc1 | inconclusive: 66.7%
COc1ccc(OCCCC(=O)Nc2cccc(C(C)=O)c2)cc1 | inconclusive: 72.4%
CCC(NC(=S)NC1CCCCC1)c1ccc(C(C)C)cc1 (stereo unspecified) | inconclusive: 40.5%
CCOc1cccc(NC(=O)Cc2cccs2)c1 | inconclusive: 41.8%
COc1ccccc1CNC(=O)Cc1ccc(C)cc1 | inactive: 13%
CCOc1ccc(C(CCc2ccccc2)NC(=O)c2ccccc2OC)cc1OCC (stereo unspecified) | inconclusive: 48.3%
Cc1ccc(CN2CCSc3ccc(C(=O)NCCCN4CCOCC4)cc32)cc1 | inconclusive: 59.7%
COc1ccc(CC(=O)NC(C)c2ccc3ccccc3c2)cc1 (stereo unspecified) | inconclusive: 48.1%
O=C(NCc1ccccc1Cl)c1cc2c(s1)CS(=O)(=O)C2 | inconclusive: 57.7%
Cc1ccc(NC(=O)C(Cc2ccccc2)N2C(=O)C3C4CCC(C4)C3C2=O)cc1Cl (stereo unspecified) | inconclusive: 40.9%
Cc1ccc(Nc2nnc(-c3ccc4c(c3)OCO4)o2)c(C)c1 | inconclusive: 41.5%
